Experimental data taken from publication doi:10.1101/2021.05.17.442671.
These are yes or no findings as the source states them, for the method shown.

The chains behind the UniProt entries cited, without tags or fusion partners.
UniProt Q1JPP8: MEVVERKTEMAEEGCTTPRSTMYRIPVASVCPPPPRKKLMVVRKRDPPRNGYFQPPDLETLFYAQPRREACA
UniProt P25859: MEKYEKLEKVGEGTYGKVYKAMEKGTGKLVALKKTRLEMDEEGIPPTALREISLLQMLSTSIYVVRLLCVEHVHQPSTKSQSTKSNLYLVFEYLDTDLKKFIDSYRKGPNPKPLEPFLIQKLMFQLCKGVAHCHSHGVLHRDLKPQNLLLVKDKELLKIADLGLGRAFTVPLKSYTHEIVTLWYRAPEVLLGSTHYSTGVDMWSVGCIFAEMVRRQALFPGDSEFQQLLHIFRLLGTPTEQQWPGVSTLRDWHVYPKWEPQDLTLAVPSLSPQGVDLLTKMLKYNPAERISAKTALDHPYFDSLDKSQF

Molecular target: SIAMESE-RELATED4 (SMR4) (Arabidopsis) (UniProt Q1JPP8)
Experiment: two-hybrid

- binding: no binding
Substance: CDKB1;1 (from UniProt P25859 1-309)
